# Laboratory results as given in publication PMC5996148.
# Where “and” joins values, the source holds several entries; their conditions need not be identical. Identical values can stand only once. The list shows a part of the results. For some of these results: The source does not settle which construct or isoform was used.
# Key:
# Experiment in all cases: protein microarray (ProtoArray v5.0), streptavidin-Alexa Fluor 647
# Conditions in all cases: 3'-biotin; 20 mM Tris (pH 7.5), 5 mM MgCl2, 100 mM KCl, 0.1% Tween-20, A/T-rich and random oligonucleotide blockers; temperature not stated; high values mean tight binding
# [1] = system: GOSR1 (human)
# [2] = system: GP1BA (human)
# [3] = system: GP9 (human)
# [4] = system: GPC4 (human)
# [5] = system: GPC5 (human)
# [6] = system: GPD1 (human)
# [7] = system: GPI transamidase component PIG-S (human)
# [8] = system: GPLD1 (human)
# [9] = system: GPM6A (human)
# [10] = molecular target: T1, GPM6B (UniProt Q13491)
# T1 sequence: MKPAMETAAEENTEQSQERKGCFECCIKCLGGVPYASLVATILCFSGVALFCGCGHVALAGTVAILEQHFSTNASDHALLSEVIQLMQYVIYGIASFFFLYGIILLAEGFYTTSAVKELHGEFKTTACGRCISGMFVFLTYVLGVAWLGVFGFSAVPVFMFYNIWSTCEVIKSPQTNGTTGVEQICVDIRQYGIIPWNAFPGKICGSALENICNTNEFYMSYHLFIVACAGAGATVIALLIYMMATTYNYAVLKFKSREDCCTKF
sequence,measurement,setting,value
GGGAGGCTGAGGCAGG [G4-1 biotinylated (PQS2)],binding signal,[1],-0.321 z-score and -0.303 z-score
same,binding signal,[2],-0.298 z-score
same,binding signal,[3],-0.332 z-score
same,binding signal,[4],-0.314 z-score
same,binding signal,[5],-0.343 z-score
same,binding signal,[6],-0.361 z-score
same,binding signal,[7],-0.31 z-score
same,binding signal,[8],-0.338 z-score
same,binding signal,[9],-0.322 z-score
same,binding signal,[10],-0.306 z-score
